Laboratory results: the supplement of paper PMC8728848
The other results are listed elsewhere or left out.

Tests used:
Test in all cases: glycan array binding signal (z-score within array); higher = stronger binding
Settings in all cases: glycan notation: IUPAC condensed, linker removed
[1] = biological target: Gal(b1-4)GlcNAc(b1-3)Gal(b1-4)GlcNAc(b1-3)Gal(b1-4)GlcNAc(b1-3)Gal(b1-4)GlcNAc(b1-3)Gal(b1-4)GlcNAc(b1-2)Man(a1-3)[Gal(b1-4)GlcNAc(b1-3)Gal(b1-4)GlcNAc(b1-3)Gal(b1-4)GlcNAc(b1-3)Gal(b1-4)GlcNAc(b1-3)Gal(b1-4)GlcNAc(b1-2)Man(a1-6)]Man(b1-4)GlcNAc(b1-4)[Fuc(a1-6)]GlcNAc
Outline: (§1)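 From the Consortium for Functional Glycomics database, 3228 arrays were curated, keeping only those whose protein sequence was available. Binding is given as a within-array Z-score averaged across arrays sharing a protein sequence and across linkers. Negative Z-scores can be read as non-binding.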

[2] = biological target: Gal(b1-4)GlcNAc(b1-3)Gal(b1-4)GlcNAc(b1-3)Gal(b1-4)GlcNAc(b1-3)Gal(b1-4)GlcNAc(b1-3)Gal(b1-4)GlcNAc(b1-2)[Gal(b1-4)GlcNAc(b1-3)Gal(b1-4)GlcNAc(b1-3)Gal(b1-4)GlcNAc(b1-3)Gal(b1-4)GlcNAc(b1-3)Gal(b1-4)GlcNAc(b1-6)]Man(a1-6)[Gal(b1-4)GlcNAc(b1-3)Gal(b1-4)GlcNAc(b1-3)Gal(b1-4)GlcNAc(b1-3)Gal(b1-4)GlcNAc(b1-3)Gal(b1-4)GlcNAc(b1-2)Man(a1-3)]Man(b1-4)GlcNAc(b1-4)[Fuc(a1-6)]GlcNAc
Outline: as §1

[3] = biological target: Gal(b1-4)GlcNAc(b1-3)Gal(b1-4)GlcNAc(b1-3)Gal(b1-4)GlcNAc(b1-3)Gal(b1-4)GlcNAc(b1-3)Gal(b1-4)GlcNAc(b1-3)Gal(b1-4)GlcNAc(b1-2)Man(a1-3)[Gal(b1-4)GlcNAc(b1-3)Gal(b1-4)GlcNAc(b1-3)Gal(b1-4)GlcNAc(b1-3)Gal(b1-4)GlcNAc(b1-3)Gal(b1-4)GlcNAc(b1-3)Gal(b1-4)GlcNAc(b1-2)Man(a1-6)]Man(b1-4)GlcNAc(b1-4)GlcNAc
Outline: as §1

[4] = biological target: Gal(b1-4)GlcNAc(b1-3)Gal(b1-4)GlcNAc(b1-3)GalNAc
Outline: as §1

[5] = biological target: Gal(b1-4)GlcNAc(b1-3)Gal(b1-4)GlcNAc(b1-3)[Gal(b1-4)GlcNAc(b1-3)Gal(b1-4)GlcNAc(b1-6)]GalNAc
Outline: as §1

[6] = biological target: Gal(b1-4)GlcNAc(b1-3)Gal(b1-4)GlcNAc(b1-6)[Gal(b1-3)]GalNAc
Outline: as §1

[7] = biological target: Gal(b1-4)GlcNAc(b1-3)Gal(b1-4)[Fuc(a1-3)]GlcNAc(b1-3)Gal(b1-4)[Fuc(a1-3)]GlcNAc
Outline: as §1

[8] = biological target: Gal(b1-4)GlcNAc(b1-3)GalNAc
Outline: as §1

[9] = biological target: Gal(b1-4)GlcNAc(b1-3)[Fuc(a1-3)GlcNAc(b1-6)]Gal(b1-4)Glc
Outline: as §1

[10] = biological target: Gal(b1-4)GlcNAc(b1-3)[Gal(b1-4)GlcNAc(b1-6)]Gal(b1-4)GlcNAc
Outline: as §1

[11] = biological target: Gal(b1-4)GlcNAc(b1-3)[GlcNAc(b1-6)]Gal(b1-4)GlcNAc
Outline: as §1

[12] = biological target: Gal(b1-4)GlcNAc(b1-6)Gal(b1-4)GlcNAc
Outline: as §1

[13] = biological target: Gal(b1-4)GlcNAc(b1-6)GalNAc
Outline: as §1

[14] = biological target: Gal(b1-4)GlcNAc(b1-6)[Gal(b1-3)]GalNAc
Outline: as §1

[15] = biological target: Gal(b1-4)GlcNAc(b1-6)[Gal(b1-4)GlcNAc(b1-3)]GalNAc
Outline: as §1

Gal(b1-4)GlcNAc6P = biological target: Gal(b1-4)GlcNAc6P
Outline: as §1

Gal(b1-6)Gal = biological target: Gal(b1-6)Gal
Outline: as §1

Gal3S(b1-3)GalNAc = biological target: Gal3S(b1-3)GalNAc
Outline: as §1

Gal3S(b1-3)GlcNAc = biological target: Gal3S(b1-3)GlcNAc
Outline: as §1

B1: AT5G17240(42) (Arabidopsis thaliana), Q6NQJ8 (protein)
chain: MDLEHQTMETFLRWAAEIGISDSIDSSRFRDSCLGHSLSVSDFPDAGGRGLGAARELKKGELVLKVPRKALMTTESIIAKDLKLSDAVNLHNSLSSTQILSVCLLYEMSKEKKSFWYPYLFHIPRDYDLLATFGNFEKQALQVEDAVWATEKATAKCQSEWKEAGSLMKELELKPKFRSFQAWLWASATISSRTLHVPWDSAGCLCPVGDLFNYDAPGDYSNTPQGPESANNVEEAGLVVETHSERLTDGGFEEDVNAYCLYARRNYQLGEQVLLCYGTYTNLELLEHYGFMLEENSNDKVFIPLETSLFSLASSWPKDSLYIHQDGKLSFALISTLRLWLIPQSQRDKSVMRLVYAGSQISVKNEILVMKWMSEKCGSVLRDLPTSVTEDTVLLHNIDKLQDPELRLEQKETEAFGSEVRAFLDANCLWDVTVLSGKPIEFSRKTSRMLSKWRWSVQWRLSYKRTLADCISYCNEKMNNLLGTQDRLRDL
[1]
  glycan array binding signal (z-score): 0.569
[2]
  glycan array binding signal (z-score): -0.295
[3]
  glycan array binding signal (z-score): -0.271
[4]
  glycan array binding signal (z-score): -0.165
[5]
  glycan array binding signal (z-score): -0.47
[6]
  glycan array binding signal (z-score): -0.397
[7]
  glycan array binding signal (z-score): -0.166
[8]
  glycan array binding signal (z-score): 0.48
[9]
  glycan array binding signal (z-score): -0.259
[10]
  glycan array binding signal (z-score): -0.159
[11]
  glycan array binding signal (z-score): -0.574
[12]
  glycan array binding signal (z-score): 0.289
[13]
  glycan array binding signal (z-score): 1.06
[14]
  glycan array binding signal (z-score): 0.049
[15]
  glycan array binding signal (z-score): -0.067
Gal(b1-4)GlcNAc6P
  glycan array binding signal (z-score): -0.431
Gal(b1-6)Gal
  glycan array binding signal (z-score): -0.362
Gal3S(b1-3)GalNAc
  glycan array binding signal (z-score): -0.466
Gal3S(b1-3)GlcNAc
  glycan array binding signal (z-score): 0.16
